Our source for the intracellular distribution values is article PMC8330100, “Similarities and differences in the localization, trafficking, and function of P-glycoprotein in MDR1-EGFP-transduced rat versus human brain capillary endothelial cell lines” (Fluids and Barriers of the CNS, 2021).

For this data set, the system named is RBE4-WT and RBE4-MDR1-EGFP cocultures. Description: Intracellular distribution of doxorubicin in RBE4-WT and -MDR1-EGFP cocultures (live-cell confocal imaging). The data set is classed as cell-based, rat. The conditions noted are these: doxorubicin 10 µM, 30 min.

In the case of `COc1cccc2c1C(=O)c1c(O)c3c(c(O)c1C2=O)C[C@@](O)(C(=O)CO)C[C@@H]3O[C@H]1C[C@H](N)[C@H](O)[C@H](C)O1` [doxorubicin], the intracellular distribution result is, setting by setting: (RBE4-MDR1-EGFP cells in coculture) “trapped in endolysosomal vesicles”; (RBE4-WT cells in coculture) “bound to cell nuclei”.
